# No constants are given. Whether binding was seen depends on the method and setting. Some binding calls cover weakened binding; strength is not graded here.
# T1: CD23 purified to homogeneity from CHO-transfected cells (human) (UniProt P06734)
# T1 sequence (looked up): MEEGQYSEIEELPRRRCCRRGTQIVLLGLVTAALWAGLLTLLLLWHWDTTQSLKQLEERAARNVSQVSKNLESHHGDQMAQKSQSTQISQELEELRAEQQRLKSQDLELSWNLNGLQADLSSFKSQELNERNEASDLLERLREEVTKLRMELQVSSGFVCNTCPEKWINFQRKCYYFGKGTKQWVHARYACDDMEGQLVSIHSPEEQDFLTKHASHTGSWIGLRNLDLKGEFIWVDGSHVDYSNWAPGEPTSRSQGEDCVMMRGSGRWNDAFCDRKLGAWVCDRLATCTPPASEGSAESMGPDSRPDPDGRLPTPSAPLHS
# T2: CD23 (FCεRII) on human CD23+ cells (human, UniProt P06734 1-321)
# T2 sequence (looked up): T1 sequence (looked up)
# Tests used:
# [1] = biological target: T1, CD23 purified to homogeneity from CHO-transfected cells (human); test: biopanning of M13 7-mer phage library on CD23-coated dishes
# [2] = biological target: T2, CD23 (FCεRII) on human CD23+ cells; test: inhibition of anti-CD23-FITC mAb binding to CD23+ cells; Activity grade
binding [1],binding [2],Binder
binds,,FHEFWPT [FHEFWPT (p30D)]
binds,,FHSQWPG [FHSQWPG (p30F)]
binds,,FHESWPP [FHESWPP (p30B)]
,binds,FHENAPS [Compound 329]
,binds,HENAPS [Compound 436]
binds,,FHEFWPL [FHEFWPL (p30C)]
binds,,FHENWPS [FHENWPS peptide (p30A)]
binds,,FHSQWPN [FHSQWPN (p30E)]

# From patent publication US20080039402A1 (UNIVERSITE BORDEAUX 2, published 2008)
